This is a selection; strong and weak results do not stand in their true shares. For part of these data: At the low end of the ranking, values are background and their order means little. This is one part of the list. For part of these data: The source does not settle which construct or isoform was used.

One experiment concerns the target T1, ETS1 (UniProt P14921).
T1 sequence: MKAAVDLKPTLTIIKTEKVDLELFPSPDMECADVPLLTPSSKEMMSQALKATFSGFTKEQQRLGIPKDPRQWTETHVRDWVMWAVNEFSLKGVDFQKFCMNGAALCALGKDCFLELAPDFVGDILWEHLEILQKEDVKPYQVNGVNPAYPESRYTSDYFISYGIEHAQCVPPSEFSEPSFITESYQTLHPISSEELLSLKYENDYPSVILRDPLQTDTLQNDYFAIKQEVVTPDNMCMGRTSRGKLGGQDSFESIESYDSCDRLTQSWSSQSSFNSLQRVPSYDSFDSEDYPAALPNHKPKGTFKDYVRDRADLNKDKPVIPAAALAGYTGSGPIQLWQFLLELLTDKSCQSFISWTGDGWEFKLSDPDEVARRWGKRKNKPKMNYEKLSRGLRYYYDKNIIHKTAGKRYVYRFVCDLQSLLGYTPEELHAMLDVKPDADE
As to the kind of experiment: DAPPL (digital affinity profiling via proximity ligation, sequencing). To be noted: 10 mM Tris-HCl pH 7.5, 50 mM NaCl, 1 mM DTT, 4% glycerol, room temperature, 30 min; GST-TFs on glutathione beads, 16-mer random dsDNA library, 0.1% …; high values mean tight binding; double strand, one strand shown; scale: fold enrichment (6-mer frequency, TF over GST control).
Consider GACAGC, for which the binding signal was determined as 0.723.

In turn, GAGGGA yielded a binding signal of 0.52.

On to GGGTGT, for which the binding signal is 0.735.

Consider CGGCAG, for which the binding signal amounted to 0.828.

In the case of GAGGAG, the binding signal was determined as 0.24.

AGGACG: the binding signal was determined as 0.476.

As to AGTAGA, the binding signal was determined as 0.727.

As to GAGTTG, the binding signal was determined as 0.535.

As for AGATAC, the binding signal turned out to be 0.924.

Sequence TGGGTC yielded a binding signal of 0.622.

In turn, AGACGA had a binding signal of 0.719.

As to CGGACA, the binding signal stood at 0.74.

CCGTAG returned a binding signal of 0.826.

On to GGAGCC, for which the binding signal is 0.332.

Turning to TGAGTT, the binding signal was determined as 0.398.

Sequence GTTGGA yielded a binding signal of 0.472.

Consider GGGGCA, for which the binding signal was determined as 0.692.

As to GAGCAT, the binding signal worked out at 0.692.

GAGGAC came in with a binding signal of 0.591.

For the sequence GGCCAG, the binding signal was 0.425.

Consider CGTGTC, for which the binding signal was found to be 0.804.

AGTTCA yielded a binding signal of 0.902.

TCAGTG: the binding signal came to 0.801.

Sequence GTACCG displayed a binding signal of 0.712.

Consider GAGCAA, for which the binding signal is 0.726.

With ACGAGG, the binding signal amounted to 0.76.

Sequence AGCGTA had a binding signal of 0.891.

AGGAGT displayed a binding signal of 0.361.

The sequence TTGGAG showed a binding signal of 0.51.

Take GAACGG: the binding signal was 0.564.

In turn, AAGTGA showed a binding signal of 0.639.

In turn, GGTGTG showed a binding signal of 0.708.

With GTGCCA, the binding signal amounted to 0.783.

For CGTCGT, the binding signal was found to be 1.04.

Take GGCGAG: the binding signal was 0.493.

With GTTAGT, the binding signal was 0.826.

CGAGCC gave a binding signal of 0.735.

Consider AAGAGG, for which the binding signal was 0.832.

ACTGTG: the binding signal was 0.501.

The target of the next experiment is T2, SPDEF (UniProt O95238).
T2 sequence: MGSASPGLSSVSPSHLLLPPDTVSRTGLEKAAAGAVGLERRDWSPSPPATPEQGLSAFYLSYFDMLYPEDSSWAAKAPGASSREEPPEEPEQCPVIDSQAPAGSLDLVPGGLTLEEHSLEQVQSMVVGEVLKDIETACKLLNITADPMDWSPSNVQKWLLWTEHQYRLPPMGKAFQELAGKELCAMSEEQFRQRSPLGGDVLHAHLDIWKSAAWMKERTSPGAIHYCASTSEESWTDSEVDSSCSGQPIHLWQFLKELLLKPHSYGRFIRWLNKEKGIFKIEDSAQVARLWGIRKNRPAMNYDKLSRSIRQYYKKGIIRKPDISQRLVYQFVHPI
Described as above. To be noted: 10 mM Tris-HCl pH 7.5, 50 mM NaCl, 1 mM DTT, 4% glycerol, room temperature, 30 min; GST-TFs on glutathione beads, 16-mer random dsDNA library, 0.1% …; high values mean tight binding; double strand, one strand shown; scale: fold enrichment (6-mer frequency, TF over GST control).
The sequence GACAGC returned a binding signal of 0.781.

As for GAGGGA, the binding signal is 0.45.

Regarding GGGTGT, the binding signal stood at 0.789.

In turn, CGGCAG registered a binding signal of 0.794.

With GAGGAG, the binding signal is 0.192.

The sequence AGGACG displayed a binding signal of 0.523.

Turning to AGTAGA, the binding signal amounted to 0.767.

On to GAGTTG, for which the binding signal came to 0.456.

In turn, AGATAC came in with a binding signal of 0.939.

As for TGGGTC, the binding signal came to 0.68.

As to AGACGA, the binding signal is 0.704.

The sequence CGGACA came in with a binding signal of 0.969.

CCGTAG gave a binding signal of 0.834.

For GGAGCC, the binding signal was 0.32.

TGAGTT registered a binding signal of 0.403.

GTTGGA returned a binding signal of 0.457.

The sequence GGGGCA gave a binding signal of 0.693.

Turning to GAGCAT, the binding signal came out at 0.793.

With GAGGAC, the binding signal was found to be 0.589.

For the sequence GGCCAG, the binding signal is 0.448.

On to CGTGTC, for which the binding signal worked out at 0.856.

Turning to AGTTCA, the binding signal is 0.926.

For TCAGTG, the binding signal is 0.755.

GTACCG came in with a binding signal of 0.754.

In turn, GAGCAA returned a binding signal of 0.729.

Sequence ACGAGG gave a binding signal of 0.754.

With AGCGTA, the binding signal turned out to be 0.823.

Turning to AGGAGT, the binding signal worked out at 0.344.

Regarding TTGGAG, the binding signal was found to be 0.521.

Consider GAACGG, for which the binding signal came to 0.619.

Consider AAGTGA, for which the binding signal was found to be 0.632.

GGTGTG gave a binding signal of 0.645.

For the sequence GTGCCA, the binding signal turned out to be 0.752.

As for CGTCGT, the binding signal was 0.766.

With GGCGAG, the binding signal was determined as 0.514.

In turn, GTTAGT registered a binding signal of 0.874.

Sequence CGAGCC gave a binding signal of 0.791.

AAGAGG returned a binding signal of 0.826.

ACTGTG yielded a binding signal of 0.504.

(Values after paper PMC7862700.)
